{"sequences": {"note": "By UniProt entry, the sequences of proteins in these tests, tags left out. Residues count along the entry.", "UniProt P08581, 25-1390": "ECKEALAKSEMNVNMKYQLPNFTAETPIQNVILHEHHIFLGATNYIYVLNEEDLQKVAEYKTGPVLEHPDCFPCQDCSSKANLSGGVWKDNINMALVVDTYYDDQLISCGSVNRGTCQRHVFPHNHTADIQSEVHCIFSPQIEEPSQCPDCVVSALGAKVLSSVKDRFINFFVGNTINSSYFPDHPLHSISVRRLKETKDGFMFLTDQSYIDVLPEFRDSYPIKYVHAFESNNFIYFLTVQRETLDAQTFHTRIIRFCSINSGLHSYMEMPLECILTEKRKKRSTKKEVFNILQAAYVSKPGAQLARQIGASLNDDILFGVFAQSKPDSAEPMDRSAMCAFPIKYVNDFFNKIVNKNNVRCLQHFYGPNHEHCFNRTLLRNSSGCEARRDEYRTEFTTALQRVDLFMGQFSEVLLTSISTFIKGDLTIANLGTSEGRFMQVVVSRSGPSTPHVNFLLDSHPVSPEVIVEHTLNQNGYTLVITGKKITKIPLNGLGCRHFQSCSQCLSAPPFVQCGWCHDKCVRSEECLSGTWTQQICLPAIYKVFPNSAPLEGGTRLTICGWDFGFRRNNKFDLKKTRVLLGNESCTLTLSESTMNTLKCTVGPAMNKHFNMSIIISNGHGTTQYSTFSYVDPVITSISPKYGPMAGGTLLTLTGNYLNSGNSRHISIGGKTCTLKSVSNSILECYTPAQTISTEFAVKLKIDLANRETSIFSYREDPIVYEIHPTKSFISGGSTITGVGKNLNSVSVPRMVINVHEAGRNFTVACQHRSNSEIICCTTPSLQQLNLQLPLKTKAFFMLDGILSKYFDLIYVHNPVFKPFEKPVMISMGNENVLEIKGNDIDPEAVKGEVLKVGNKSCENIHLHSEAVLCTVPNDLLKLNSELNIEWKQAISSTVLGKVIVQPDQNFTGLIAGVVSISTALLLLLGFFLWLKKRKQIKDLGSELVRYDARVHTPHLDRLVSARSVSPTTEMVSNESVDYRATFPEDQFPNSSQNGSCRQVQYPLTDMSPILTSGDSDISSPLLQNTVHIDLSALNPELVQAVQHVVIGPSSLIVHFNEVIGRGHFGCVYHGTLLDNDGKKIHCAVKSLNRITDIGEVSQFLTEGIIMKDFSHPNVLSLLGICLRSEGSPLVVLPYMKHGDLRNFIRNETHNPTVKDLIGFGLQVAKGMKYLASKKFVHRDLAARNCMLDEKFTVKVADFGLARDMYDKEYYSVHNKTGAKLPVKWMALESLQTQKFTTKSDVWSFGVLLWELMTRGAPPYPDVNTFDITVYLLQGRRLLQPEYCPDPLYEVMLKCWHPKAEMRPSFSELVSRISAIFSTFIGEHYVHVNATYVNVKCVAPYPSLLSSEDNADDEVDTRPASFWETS"}, "source": "paper PMC6237600", "molecular_target": "c-met receptor tyrosine kinase (native, on MM cell surface) (Homo sapiens) (UniProt P08581)", "assay": "flow cytometry cell binding", "conditions": "1x PBS, 4.5 g/L glucose, 5 mM MgCl2, 0.1 mg/mL yeast tRNA, 1 mg/mL BSA, 4 C, 30 min, 3e5 cells in 200 uL, pH not stated, protein on the cell surface, single-stranded DNA", "note": "For at least one entry, the source does not settle the construct or the ends of the probe. At least one result comes from cells or an extract, where the contact may be indirect. A weaker result is weaker than the reference pair of the same experiment."}
{"sequence": "ATCAGGCTGGATGGTAGCTCGGTCGGGGTGGGTGGGTTGGCAAGTCTGAT [SL1]", "values": [{"measurement": "binding result", "setting": "MM.1S treated with ARQ197 5 or 15 uM (surface c-met decreased)", "value": "binds more weakly"}, {"measurement": "binding result", "setting": "MM.1S with c-met siRNA 100 nM (target depleted, not a lower affinity)", "value": "binds more weakly"}]}
